PubChem BioAssay AID602196 – INSERM, 2012
The deposit covers about 23,000 reagents; below is an unselected part. 455 of them (2%) were called active. 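Active includes both protection and sensitisation; some change values fall well beyond the stated -50 to +50 range.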 Reagents against one gene are numbered here. Further read-outs or replicates are left out here. The record does not give: the amount of reagent.

Purpose: 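Modifiers of cisplatin sensitivity in A549 cells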
System: human A549 lung cancer cells
Reagents: siRNA pair against human genes
Duration: 48 h transfection before cisplatin; time from cisplatin to read-out not stated
Challenge: cisplatin at a dose killing half of control-siRNA cells; exact dose and duration not given
Read-out: 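Shift in cisplatin death relative to control siRNA, from -50 (all cells die) to +50 (no cells die); siRNAs harmful on their own scored 0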
Direction: two-siRNA summed score (-2 to +2): higher = both siRNAs protect from cisplatin killing; -2 means both sensitise; mean protection from cisplatin (shift in death): higher = protection from cisplatin killing
Rule for the call: 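Each siRNA scores 0 if harmful alone by LDH or WST-1, otherwise +1 if it reduces and -1 if it increases cisplatin killing; a gene is active when both siRNAs agree (sum +2 or -2)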
Meaning of the calls: active = both siRNAs shift cisplatin killing the same way; inactive = no consistent shift, or siRNA harmful alone

LOC389425: two-siRNA summed score (-2 to +2) = 0; mean protection from cisplatin (shift in death) (%) = 5.1; activity call = inactive
LOC387977: two-siRNA summed score (-2 to +2) = 0; mean protection from cisplatin (shift in death) (%) = 5.2; activity call = inactive
LOC389888: two-siRNA summed score (-2 to +2) = 0; mean protection from cisplatin (shift in death) (%) = 15.2; activity call = inactive
LSM10 (LSM10, U7 small nuclear RNA associated): two-siRNA summed score (-2 to +2) = 1; mean protection from cisplatin (shift in death) (%) = -5.3; activity call = inactive
ATP6V0E1 (ATPase H+ transporting V0 subunit e1): two-siRNA summed score (-2 to +2) = 0; mean protection from cisplatin (shift in death) (%) = 1.5; activity call = inactive
TRIM54 (tripartite motif containing 54): two-siRNA summed score (-2 to +2) = 0; mean protection from cisplatin (shift in death) (%) = 13.3; activity call = inactive
LCTL (lactase like): two-siRNA summed score (-2 to +2) = 0; mean protection from cisplatin (shift in death) (%) = -1.8; activity call = inactive
HGD (homogentisate 1,2-dioxygenase): two-siRNA summed score (-2 to +2) = -1; mean protection from cisplatin (shift in death) (%) = -24.1; activity call = inactive
CCDC18 (coiled-coil domain containing 18): two-siRNA summed score (-2 to +2) = 1; mean protection from cisplatin (shift in death) (%) = 7.2; activity call = inactive
CLDN15 (claudin 15): two-siRNA summed score (-2 to +2) = 1; mean protection from cisplatin (shift in death) (%) = 15.5; activity call = inactive
PRKAR2B: two-siRNA summed score (-2 to +2) = -1; mean protection from cisplatin (shift in death) (%) = -3.5; activity call = inactive
HDIP1 (HDAC and MIER1 interacting protein 1): two-siRNA summed score (-2 to +2) = 0; mean protection from cisplatin (shift in death) (%) = 0.2; activity call = inactive

Quoted from the listing for reference:
TRIM54 (tripartite motif containing 54): two-siRNA summed score (-2 to +2) = 0; mean protection from cisplatin (shift in death) (%) = 13.3; activity call = inactive
LCTL (lactase like): two-siRNA summed score (-2 to +2) = 0; mean protection from cisplatin (shift in death) (%) = -1.8; activity call = inactive
HGD (homogentisate 1,2-dioxygenase): two-siRNA summed score (-2 to +2) = -1; mean protection from cisplatin (shift in death) (%) = -24.1; activity call = inactive
CCDC18 (coiled-coil domain containing 18): two-siRNA summed score (-2 to +2) = 1; mean protection from cisplatin (shift in death) (%) = 7.2; activity call = inactive
CLDN15 (claudin 15): two-siRNA summed score (-2 to +2) = 1; mean protection from cisplatin (shift in death) (%) = 15.5; activity call = inactive

More entries follow:
DIABLO (diablo IAP-binding mitochondrial protein): two-siRNA summed score (-2 to +2) = 1; mean protection from cisplatin (shift in death) (%) = 16.2; activity call = inactive
ARHGAP45 (Rho GTPase activating protein 45): two-siRNA summed score (-2 to +2) = 0; mean protection from cisplatin (shift in death) (%) = 2.3; activity call = inactive
INTS11 (integrator complex subunit 11): two-siRNA summed score (-2 to +2) = 0; mean protection from cisplatin (shift in death) (%) = 16; activity call = inactive
LOC391295: two-siRNA summed score (-2 to +2) = 0; mean protection from cisplatin (shift in death) (%) = 3.4; activity call = inactive
PIGN (phosphatidylinositol glycan anchor biosynthesis class N): two-siRNA summed score (-2 to +2) = -1; mean protection from cisplatin (shift in death) (%) = -4.2; activity call = inactive
LIG3 (DNA ligase 3): two-siRNA summed score (-2 to +2) = 0; mean protection from cisplatin (shift in death) (%) = 2.2; activity call = inactive
CLASRP (CLK4 associating serine/arginine rich protein): two-siRNA summed score (-2 to +2) = 0; mean protection from cisplatin (shift in death) (%) = 0.2; activity call = inactive
C4orf46 (chromosome 4 open reading frame 46): two-siRNA summed score (-2 to +2) = -1; mean protection from cisplatin (shift in death) (%) = -3.6; activity call = inactive
HS3ST5 (heparan sulfate-glucosamine 3-sulfotransferase 5): two-siRNA summed score (-2 to +2) = 1; mean protection from cisplatin (shift in death) (%) = 11.1; activity call = inactive
R3HDML (R3H domain containing like): two-siRNA summed score (-2 to +2) = 0; mean protection from cisplatin (shift in death) (%) = 2.4; activity call = inactive
GPBP1 (GC-rich promoter binding protein 1): two-siRNA summed score (-2 to +2) = 0; mean protection from cisplatin (shift in death) (%) = 4.7; activity call = inactive
CSAD (cysteine sulfinic acid decarboxylase): two-siRNA summed score (-2 to +2) = 0; mean protection from cisplatin (shift in death) (%) = -11; activity call = inactive
SNX11 (sorting nexin 11): two-siRNA summed score (-2 to +2) = 1; mean protection from cisplatin (shift in death) (%) = 14.5; activity call = inactive
PPM1E (protein phosphatase, Mg2+/Mn2+ dependent 1E): two-siRNA summed score (-2 to +2) = 0; mean protection from cisplatin (shift in death) (%) = 5.1; activity call = inactive
LOC402414: two-siRNA summed score (-2 to +2) = 0; mean protection from cisplatin (shift in death) (%) = 4; activity call = inactive
UPF2 (UPF2 regulator of nonsense mediated mRNA decay): two-siRNA summed score (-2 to +2) = 0; mean protection from cisplatin (shift in death) (%) = 6.2; activity call = inactive
CENPV (centromere protein V): two-siRNA summed score (-2 to +2) = 1; mean protection from cisplatin (shift in death) (%) = 12.4; activity call = inactive
TMEM41A (transmembrane protein 41A): two-siRNA summed score (-2 to +2) = 0; mean protection from cisplatin (shift in death) (%) = 1.9; activity call = inactive
MGAT2 #1: two-siRNA summed score (-2 to +2) = 0; mean protection from cisplatin (shift in death) (%) = -1; activity call = inactive
MGAT2 #2: two-siRNA summed score (-2 to +2) = 0; mean protection from cisplatin (shift in death) (%) = 7.4; activity call = inactive
